# According to the supplement of paper PMC10849652:
# Sequences of proteins named here, by UniProt entry; tags and fusion partners are left off. A change or cut given only in a name is not applied to a line headed by its entry.
# UniProt P07288: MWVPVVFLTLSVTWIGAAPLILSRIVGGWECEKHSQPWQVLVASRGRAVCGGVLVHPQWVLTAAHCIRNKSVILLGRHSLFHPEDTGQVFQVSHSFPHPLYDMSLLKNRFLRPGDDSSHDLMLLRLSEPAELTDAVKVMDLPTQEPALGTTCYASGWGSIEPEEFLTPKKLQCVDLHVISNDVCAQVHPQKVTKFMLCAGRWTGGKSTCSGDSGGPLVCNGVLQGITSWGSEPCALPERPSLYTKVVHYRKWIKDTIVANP
# UniProt Q86VI4: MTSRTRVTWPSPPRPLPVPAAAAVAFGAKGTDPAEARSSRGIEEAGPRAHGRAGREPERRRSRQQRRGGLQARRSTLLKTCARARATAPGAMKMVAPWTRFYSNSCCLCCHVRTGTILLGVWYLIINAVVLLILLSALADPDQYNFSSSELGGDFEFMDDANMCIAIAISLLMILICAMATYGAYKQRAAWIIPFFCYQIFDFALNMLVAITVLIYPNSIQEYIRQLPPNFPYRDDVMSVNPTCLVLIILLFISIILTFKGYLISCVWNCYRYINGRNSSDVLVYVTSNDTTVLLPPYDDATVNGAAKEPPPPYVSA
# UniProt Q8IXQ5, whole entry, looked up: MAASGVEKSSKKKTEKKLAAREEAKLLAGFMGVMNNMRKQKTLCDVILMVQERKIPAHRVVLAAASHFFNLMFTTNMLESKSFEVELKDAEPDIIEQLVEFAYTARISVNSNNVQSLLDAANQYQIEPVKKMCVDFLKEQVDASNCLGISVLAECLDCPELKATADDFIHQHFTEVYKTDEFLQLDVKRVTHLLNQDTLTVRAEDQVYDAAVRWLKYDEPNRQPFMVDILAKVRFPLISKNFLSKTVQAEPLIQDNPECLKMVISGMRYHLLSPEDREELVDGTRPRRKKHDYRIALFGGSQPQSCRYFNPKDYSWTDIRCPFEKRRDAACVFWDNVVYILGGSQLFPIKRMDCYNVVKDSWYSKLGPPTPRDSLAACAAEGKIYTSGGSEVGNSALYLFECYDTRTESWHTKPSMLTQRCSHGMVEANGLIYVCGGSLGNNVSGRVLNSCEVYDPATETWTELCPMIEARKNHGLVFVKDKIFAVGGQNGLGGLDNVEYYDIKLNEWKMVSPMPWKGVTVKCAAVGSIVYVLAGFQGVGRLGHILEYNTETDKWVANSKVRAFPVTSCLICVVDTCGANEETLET
# UniProt O14782: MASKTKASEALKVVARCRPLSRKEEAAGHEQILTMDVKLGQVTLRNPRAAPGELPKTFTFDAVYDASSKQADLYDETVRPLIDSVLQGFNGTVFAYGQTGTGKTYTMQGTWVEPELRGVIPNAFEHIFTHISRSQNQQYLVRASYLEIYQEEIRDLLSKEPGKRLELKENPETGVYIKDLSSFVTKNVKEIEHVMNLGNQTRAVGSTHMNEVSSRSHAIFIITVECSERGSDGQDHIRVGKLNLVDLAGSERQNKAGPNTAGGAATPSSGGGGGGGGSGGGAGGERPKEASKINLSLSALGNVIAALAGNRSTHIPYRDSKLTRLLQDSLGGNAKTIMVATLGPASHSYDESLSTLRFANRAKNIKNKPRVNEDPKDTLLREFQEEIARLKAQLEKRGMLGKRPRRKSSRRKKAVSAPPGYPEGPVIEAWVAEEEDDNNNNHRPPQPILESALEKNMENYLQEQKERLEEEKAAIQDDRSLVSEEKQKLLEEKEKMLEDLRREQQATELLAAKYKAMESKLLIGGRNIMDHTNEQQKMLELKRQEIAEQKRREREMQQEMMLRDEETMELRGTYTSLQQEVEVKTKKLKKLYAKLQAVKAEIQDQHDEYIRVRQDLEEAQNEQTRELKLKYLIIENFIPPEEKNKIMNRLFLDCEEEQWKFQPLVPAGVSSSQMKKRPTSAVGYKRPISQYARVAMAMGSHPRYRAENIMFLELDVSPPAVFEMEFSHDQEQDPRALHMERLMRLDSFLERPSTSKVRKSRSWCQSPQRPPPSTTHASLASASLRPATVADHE
# UniProt Q9ULH0: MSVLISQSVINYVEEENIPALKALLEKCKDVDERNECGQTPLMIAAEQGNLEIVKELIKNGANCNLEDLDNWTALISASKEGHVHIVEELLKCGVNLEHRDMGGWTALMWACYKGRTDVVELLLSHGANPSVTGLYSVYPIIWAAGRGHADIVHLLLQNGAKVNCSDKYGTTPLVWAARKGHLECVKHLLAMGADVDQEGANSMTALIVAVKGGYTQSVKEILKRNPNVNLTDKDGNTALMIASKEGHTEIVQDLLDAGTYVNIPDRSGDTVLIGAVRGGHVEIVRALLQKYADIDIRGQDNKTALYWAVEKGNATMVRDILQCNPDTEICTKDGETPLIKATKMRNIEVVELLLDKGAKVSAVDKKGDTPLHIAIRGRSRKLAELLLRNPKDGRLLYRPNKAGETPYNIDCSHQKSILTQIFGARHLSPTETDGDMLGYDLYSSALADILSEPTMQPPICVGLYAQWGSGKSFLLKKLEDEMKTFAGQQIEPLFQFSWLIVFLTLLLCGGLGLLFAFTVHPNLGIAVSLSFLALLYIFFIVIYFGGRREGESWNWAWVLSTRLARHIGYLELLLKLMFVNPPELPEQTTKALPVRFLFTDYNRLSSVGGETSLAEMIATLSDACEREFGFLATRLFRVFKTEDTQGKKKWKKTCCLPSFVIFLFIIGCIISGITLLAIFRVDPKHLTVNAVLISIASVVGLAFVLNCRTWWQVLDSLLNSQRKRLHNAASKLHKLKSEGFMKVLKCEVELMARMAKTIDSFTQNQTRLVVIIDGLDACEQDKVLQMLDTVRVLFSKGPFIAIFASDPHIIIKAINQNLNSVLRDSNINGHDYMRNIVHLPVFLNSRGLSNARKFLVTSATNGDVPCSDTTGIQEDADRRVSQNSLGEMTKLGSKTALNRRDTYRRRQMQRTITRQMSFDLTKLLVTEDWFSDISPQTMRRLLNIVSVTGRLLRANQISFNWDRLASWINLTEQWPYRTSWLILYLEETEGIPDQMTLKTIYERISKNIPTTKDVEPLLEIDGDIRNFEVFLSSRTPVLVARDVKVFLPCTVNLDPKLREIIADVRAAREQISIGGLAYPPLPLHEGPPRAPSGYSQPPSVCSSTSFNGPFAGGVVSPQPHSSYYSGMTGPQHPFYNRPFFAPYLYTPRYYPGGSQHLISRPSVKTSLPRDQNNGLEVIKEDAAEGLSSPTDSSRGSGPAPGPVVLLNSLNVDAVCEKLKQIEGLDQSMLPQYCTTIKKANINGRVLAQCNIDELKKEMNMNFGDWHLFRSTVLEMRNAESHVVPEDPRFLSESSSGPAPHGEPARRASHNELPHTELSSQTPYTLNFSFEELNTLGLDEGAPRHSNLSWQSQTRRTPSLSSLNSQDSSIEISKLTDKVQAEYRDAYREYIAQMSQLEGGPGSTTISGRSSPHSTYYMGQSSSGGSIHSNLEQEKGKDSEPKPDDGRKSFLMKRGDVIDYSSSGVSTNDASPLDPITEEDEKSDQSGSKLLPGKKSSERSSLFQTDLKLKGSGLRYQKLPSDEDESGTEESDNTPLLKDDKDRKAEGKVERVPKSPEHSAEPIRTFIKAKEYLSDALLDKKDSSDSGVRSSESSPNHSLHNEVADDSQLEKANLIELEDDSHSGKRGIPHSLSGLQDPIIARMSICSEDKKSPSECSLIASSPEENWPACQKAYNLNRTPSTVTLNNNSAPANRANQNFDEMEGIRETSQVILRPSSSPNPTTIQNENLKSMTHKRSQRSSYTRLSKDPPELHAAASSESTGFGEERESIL
# UniProt Q8N6L1: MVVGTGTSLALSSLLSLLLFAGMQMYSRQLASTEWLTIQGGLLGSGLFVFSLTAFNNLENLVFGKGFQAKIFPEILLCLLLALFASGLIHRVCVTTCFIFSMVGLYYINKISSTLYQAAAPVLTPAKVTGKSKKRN
# UniProt Q9UMN6, whole entry, looked up: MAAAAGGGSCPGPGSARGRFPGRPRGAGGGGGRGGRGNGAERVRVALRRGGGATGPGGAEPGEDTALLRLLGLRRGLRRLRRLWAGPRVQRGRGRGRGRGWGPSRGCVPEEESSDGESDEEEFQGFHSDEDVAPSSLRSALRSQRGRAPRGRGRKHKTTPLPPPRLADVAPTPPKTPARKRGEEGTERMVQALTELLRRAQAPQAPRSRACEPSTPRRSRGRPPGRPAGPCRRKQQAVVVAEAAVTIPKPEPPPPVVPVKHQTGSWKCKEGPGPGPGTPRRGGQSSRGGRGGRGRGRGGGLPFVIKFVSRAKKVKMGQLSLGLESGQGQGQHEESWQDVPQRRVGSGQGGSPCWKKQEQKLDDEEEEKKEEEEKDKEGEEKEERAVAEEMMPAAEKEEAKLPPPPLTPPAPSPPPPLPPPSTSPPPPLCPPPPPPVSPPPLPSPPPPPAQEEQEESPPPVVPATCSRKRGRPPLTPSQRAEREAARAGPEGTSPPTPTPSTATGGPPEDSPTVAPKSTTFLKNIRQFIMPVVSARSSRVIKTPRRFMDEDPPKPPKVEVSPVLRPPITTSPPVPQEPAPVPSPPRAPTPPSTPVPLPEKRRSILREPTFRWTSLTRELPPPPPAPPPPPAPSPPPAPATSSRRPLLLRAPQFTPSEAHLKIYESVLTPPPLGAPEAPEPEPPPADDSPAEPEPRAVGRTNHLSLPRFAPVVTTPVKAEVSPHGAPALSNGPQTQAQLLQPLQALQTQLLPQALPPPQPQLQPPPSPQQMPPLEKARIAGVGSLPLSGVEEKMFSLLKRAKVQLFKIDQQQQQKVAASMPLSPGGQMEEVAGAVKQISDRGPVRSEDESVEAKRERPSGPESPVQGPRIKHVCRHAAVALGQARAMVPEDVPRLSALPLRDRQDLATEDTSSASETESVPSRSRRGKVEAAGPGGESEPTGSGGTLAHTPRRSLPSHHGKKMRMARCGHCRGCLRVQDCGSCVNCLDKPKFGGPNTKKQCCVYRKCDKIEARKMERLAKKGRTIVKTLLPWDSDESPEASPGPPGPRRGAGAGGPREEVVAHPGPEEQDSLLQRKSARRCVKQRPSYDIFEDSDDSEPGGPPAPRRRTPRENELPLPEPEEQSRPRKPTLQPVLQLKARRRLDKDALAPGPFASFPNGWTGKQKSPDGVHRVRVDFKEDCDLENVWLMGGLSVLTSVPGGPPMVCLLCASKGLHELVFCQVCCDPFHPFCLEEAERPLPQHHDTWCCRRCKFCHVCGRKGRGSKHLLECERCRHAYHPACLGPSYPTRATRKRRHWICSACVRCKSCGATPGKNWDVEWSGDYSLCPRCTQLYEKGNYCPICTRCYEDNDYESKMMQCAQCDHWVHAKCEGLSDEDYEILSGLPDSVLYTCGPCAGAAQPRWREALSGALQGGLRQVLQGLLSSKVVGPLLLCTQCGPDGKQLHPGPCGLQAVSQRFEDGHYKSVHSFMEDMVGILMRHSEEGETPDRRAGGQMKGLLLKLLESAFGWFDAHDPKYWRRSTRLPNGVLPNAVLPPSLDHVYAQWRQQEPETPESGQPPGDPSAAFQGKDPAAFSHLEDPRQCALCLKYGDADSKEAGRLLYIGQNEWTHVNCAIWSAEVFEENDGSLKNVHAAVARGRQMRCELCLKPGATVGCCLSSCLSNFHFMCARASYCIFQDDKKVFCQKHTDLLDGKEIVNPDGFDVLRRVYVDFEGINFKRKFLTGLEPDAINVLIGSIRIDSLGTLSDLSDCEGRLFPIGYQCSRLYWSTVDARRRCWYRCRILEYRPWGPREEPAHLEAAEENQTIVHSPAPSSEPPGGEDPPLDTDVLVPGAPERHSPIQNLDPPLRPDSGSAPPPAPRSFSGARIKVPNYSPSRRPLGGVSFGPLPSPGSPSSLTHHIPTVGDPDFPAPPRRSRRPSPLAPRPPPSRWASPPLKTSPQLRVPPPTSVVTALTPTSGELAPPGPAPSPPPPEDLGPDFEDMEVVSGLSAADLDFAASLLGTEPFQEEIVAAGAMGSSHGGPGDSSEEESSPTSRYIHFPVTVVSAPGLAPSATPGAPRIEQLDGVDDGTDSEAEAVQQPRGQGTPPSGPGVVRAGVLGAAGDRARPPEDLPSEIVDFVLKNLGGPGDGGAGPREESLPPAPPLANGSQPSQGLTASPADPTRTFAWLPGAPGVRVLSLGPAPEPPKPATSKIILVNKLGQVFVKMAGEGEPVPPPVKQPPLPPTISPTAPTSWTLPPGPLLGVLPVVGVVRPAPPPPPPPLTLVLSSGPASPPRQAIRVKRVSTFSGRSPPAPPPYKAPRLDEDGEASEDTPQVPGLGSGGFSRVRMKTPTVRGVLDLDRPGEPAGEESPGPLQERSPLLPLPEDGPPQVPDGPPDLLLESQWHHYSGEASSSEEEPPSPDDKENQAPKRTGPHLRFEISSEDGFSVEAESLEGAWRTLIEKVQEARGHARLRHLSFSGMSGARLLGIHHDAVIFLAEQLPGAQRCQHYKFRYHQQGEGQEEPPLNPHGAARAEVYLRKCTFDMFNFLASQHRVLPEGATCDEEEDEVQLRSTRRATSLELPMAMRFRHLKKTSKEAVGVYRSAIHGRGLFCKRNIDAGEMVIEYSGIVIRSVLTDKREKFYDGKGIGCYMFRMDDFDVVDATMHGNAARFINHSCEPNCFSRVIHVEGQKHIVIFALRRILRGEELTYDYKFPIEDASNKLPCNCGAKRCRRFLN
# Some of the results follow.
# Columns and labels:
# Assay in all cases: log2 fold change, soluble protein after heating vs DMSO (PISA); higher = thermal stabilisation; K562 lysate, 10 uM; active = over 0.2 and 3.5 SD of the protein, either way, in both replicates (recomputed)
# [1] = compound: Cc1sc2c(c1C)C(c1ccc(Cl)cc1)=N[C@@H](CC(=O)OC(C)(C)C)c1nnc(C)n1-2
# Summary of the method: (§1)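 Pellets of K562 cells were dounce-homogenised in PBS pH 7.4 with 1 mM MgCl2, and the crude extract was held at 1 mg/mL protein for a 30 min treatment with 10 μM compound. Aliquots were heated for 3 min over 48°C-58°C and pooled before NP-40 was added to 0.5% at 4°C. The supernatant from 21,000xg for 90 min was quantified by TMTpro 16plex LC-MS/MS with channel sums equalised. Values are reported from duplicates as log-two fold change in thermal stability relative to solvent controls.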
# [2] = compound: c1ccc([C@@H]2C[C@H]2NC2CCNCC2)cc1
# Summary of the method: as §1
# [3] = compound: CC1=C2C(=CC=C1)N=C(N(C2=O)C3=CC=CC=C3C)CN4C=NC5=C(N=CN=C54)N
# Summary of the method: as §1
# [4] = compound: C1=CC=C(C=C1)[C@H](COC2=CC3=C(C=C2)NC(=O)N3)NC(=O)C4=CC=CN(C4=O)CC5=CC(=C(C=C5)F)F
# Summary of the method: as §1
# [5] = compound: CC1=C(SC2=C1C(=N[C@H](C3=NN=C(N32)C)CC(=O)N)C4=CC=C(C=C4)Cl)C
# Summary of the method: as §1
target,measurement,setting,value
L3MBTL2 (UniProt Q969R5),log2 fold change,[1],inactive: -0.051
same,log2 fold change,[2],inactive: -0.168
KLK3 (UniProt P07288),log2 fold change,[1],inactive: 0.333
KRAS (UniProt P01116),log2 fold change,[3],inactive: 0.088
same,log2 fold change,[1],inactive: 0.016
same,log2 fold change,[2],inactive: -0.092
KIF18B (UniProt Q86Y91),log2 fold change,[1],inactive: -0.083
LAPTM4B (UniProt Q86VI4),log2 fold change,[4],inactive: -0.014
same,log2 fold change,[5],inactive: 0.002
same,log2 fold change,[2],inactive: -0.023
KMT5A (UniProt Q9NQR1),log2 fold change,[2],inactive: 0.029
KDM5A (UniProt P29375),log2 fold change,[1],inactive: 0.011
same,log2 fold change,[2],inactive: -0.043
LAMP2 isoform 2 (UniProt P13473),log2 fold change,[4],inactive: -0.058
same,log2 fold change,[5],inactive: -0.027
same,log2 fold change,[2],inactive: 0.165
KIFAP3 (UniProt Q92845),log2 fold change,[4],inactive: -0.007
same,log2 fold change,[5],inactive: -0.047
same,log2 fold change,[1],inactive: -0.055
same,log2 fold change,[2],inactive: 0.041
KLHL7 isoform 3 (UniProt Q8IXQ5),log2 fold change,[3],inactive: 0.085
same,log2 fold change,[2],inactive: 0.08
KIF1B isoform 3 (UniProt O60333),log2 fold change,[4],inactive: -0.131
same,log2 fold change,[5],inactive: -0.024
same,log2 fold change,[1],inactive: 0.086
same,log2 fold change,[2],inactive: -0.194
KDM4C (UniProt Q9H3R0),log2 fold change,[4],inactive: 0.131
same,log2 fold change,[5],inactive: -0.122
same,log2 fold change,[1],inactive: -0.03
same,log2 fold change,[2],inactive: 0.189
LAMA5 (UniProt O15230),log2 fold change,[4],inactive: 0.151
same,log2 fold change,[5],inactive: -0.072
same,log2 fold change,[1],inactive: -0.058
same,log2 fold change,[2],inactive: -0.033
KRAS isoform 2 (UniProt P01116),log2 fold change,[1],inactive: -0.006
KIAA0586 isoform 3 (UniProt Q9BVV6),log2 fold change,[1],inactive: 0.02
KLHL20 (UniProt Q9Y2M5),log2 fold change,[4],inactive: -0.02
same,log2 fold change,[5],inactive: 0.025
same,log2 fold change,[1],inactive: -0.079
same,log2 fold change,[2],inactive: -0.033
KLC3 isoform 3 (UniProt Q6P597),log2 fold change,[4],inactive: -0.051
same,log2 fold change,[5],inactive: -0.033
same,log2 fold change,[2],inactive: -0.031
KIF16B isoform 2 (UniProt Q96L93),log2 fold change,[3],inactive: -0.032
same,log2 fold change,[1],inactive: -0.105
same,log2 fold change,[2],inactive: -0.013
KLHL17 (UniProt Q6TDP4),log2 fold change,[4],inactive: 0.042
same,log2 fold change,[5],inactive: 0.071
same,log2 fold change,[2],inactive: -0.08
KLHL22 (UniProt Q53GT1),log2 fold change,[3],inactive: 0.025
same,log2 fold change,[1],inactive: 0.042
same,log2 fold change,[2],inactive: -0.169
KIF3C (UniProt O14782),log2 fold change,[3],inactive: 0.683
same,log2 fold change,[1],inactive: -0.059
same,log2 fold change,[2],inactive: 0.022
KDM4B (UniProt O94953),log2 fold change,[3],inactive: -0.141
same,log2 fold change,[1],inactive: 0.105
same,log2 fold change,[2],inactive: -0.035
KIDINS220 isoform 2 (UniProt Q9ULH0),log2 fold change,[3],inactive: 0.011
KRTCAP2 isoform 2 (UniProt Q8N6L1),log2 fold change,[3],inactive: -0.02
same,log2 fold change,[1],inactive: 0.074
same,log2 fold change,[2],inactive: -0.045
KIF21A (UniProt H0YI78),log2 fold change,[4],inactive: 0.128
same,log2 fold change,[5],inactive: 0.02
same,log2 fold change,[1],inactive: 0.106
KIF20B isoform 2 (UniProt Q96Q89),log2 fold change,[3],inactive: 0.052
same,log2 fold change,[1],inactive: -0.175
same,log2 fold change,[2],inactive: 0.105
KMT2E (UniProt Q8IZD2),log2 fold change,[3],inactive: 0.171
same,log2 fold change,[1],inactive: 0.004
same,log2 fold change,[2],inactive: 0.12
KMT2D (UniProt O14686),log2 fold change,[1],inactive: 0.017
LAPTM4A (UniProt Q15012),log2 fold change,[3],inactive: -0.2
same,log2 fold change,[1],inactive: -0.103
KLHL7 (UniProt Q8IXQ5),log2 fold change,[3],inactive: 0.096
same,log2 fold change,[1],inactive: -0.05
same,log2 fold change,[2],inactive: 0.094
KMT2B (UniProt Q9UMN6),log2 fold change,[1],inactive: -0.012
KLHL42 (UniProt Q9P2K6),log2 fold change,[4],inactive: -0.022
same,log2 fold change,[5],inactive: -0.069
same,log2 fold change,[1],inactive: -0.021
same,log2 fold change,[2],inactive: -0.049
KLHDC2 (UniProt Q9Y2U9),log2 fold change,[3],inactive: 0.02
KLHDC8B (UniProt Q8IXV7),log2 fold change,[1],inactive: -0.069
KIF2A isoform 2 (UniProt O00139),log2 fold change,[2],inactive: 0.326

# Random excerpt: five entries already listed.
target,measurement,setting,value
KLHL7 (UniProt Q8IXQ5),log2 fold change,[3],inactive: 0.096
LAMA5 (UniProt O15230),log2 fold change,[4],inactive: 0.151
KDM5A (UniProt P29375),log2 fold change,[1],inactive: 0.011
KDM4B (UniProt O94953),log2 fold change,[2],inactive: -0.035
KIF20B isoform 2 (UniProt Q96Q89),log2 fold change,[1],inactive: -0.175
